# In article PMC5996148:
# This is one part of the list.
# Legend:
# Assay in all cases: protein microarray (ProtoArray v5.0), streptavidin-Alexa Fluor 647
# Settings in all cases: 3'-biotin; 20 mM Tris (pH 7.5), 5 mM MgCl2, 100 mM KCl, 0.1% Tween-20, A/T-rich and random oligonucleotide blockers; temperature not stated; high values mean tight binding
# SERPINA7 (human) = test system: SERPINA7 (human)
# SERPINB1 (human) = test system: SERPINB1 (human)
# SERPINB2 (human) = test system: SERPINB2 (human)
# SERPINB3 (human) = test system: SERPINB3 (human)
# SERPINB5 (human) = test system: SERPINB5 (human)
# SERPINB6 (human) = test system: SERPINB6 (human)
# SERPINB7 (human) = test system: SERPINB7 (human)
# SERPINB8 (human) = test system: SERPINB8 (human)
# SERPINB9 (human) = test system: SERPINB9 (human)
# SETMAR (human) = test system: SETMAR (human)
sequence,measurement,setting,value
GGGAGGCTGAGGCAGG [G4-1 biotinylated (PQS2)],binding signal,SERPINA7 (human),-0.332 z-score
same,binding signal,SERPINB1 (human),-0.331 z-score
same,binding signal,SERPINB2 (human),-0.329 z-score
same,binding signal,SERPINB3 (human),-0.323 z-score
same,binding signal,SERPINB5 (human),-0.318 z-score
same,binding signal,SERPINB6 (human),-0.326 z-score
same,binding signal,SERPINB7 (human),-0.328 z-score
same,binding signal,SERPINB8 (human),-0.254 z-score
same,binding signal,SERPINB9 (human),-0.328 z-score
same,binding signal,SETMAR (human),-0.265 z-score

# Reprinted at random: 2 records from the list, in no set order.
sequence,measurement,setting,value
GGGAGGCTGAGGCAGG [G4-1 biotinylated (PQS2)],binding signal,SERPINB3 (human),-0.323 z-score
same,binding signal,SERPINB1 (human),-0.331 z-score
